Assay results as given in patent US5945404A, “21-Substituted steroid compound” (priority 1993, dated 1999).
The name of at least one read-out is uncertain.

Test system: croton oil-induced ear edema
Assay: Inhibitory Effects on Croton oil-induced Ear Lobe Edema
Assay type: in vivo, male ddY mice
Conditions: ointment 20 mg, mouse ear lobe
Method: Ointment to be tested was prepared usign white soft paraffin as the base and containing dexamethasone at 0.1% concentration.
Groups of 10 male ddY mice each weighing about 25 g were used. Ointment to be tested (20 mg) was rubbed in the right-side ear lobe, and, 30 min later, a drop of 4 % croton oil dissolved in either was applied to it. Thirty minute after that treatment, mice were sacrificed. Ear lobes on both sides were punched out in the size of 5-mm diameter, and weighed. Results were expressed by calculating the per cent of weight change of the right edema ear as compared with that of the untreated left ear, and compared with that of the control.

Row | SMILES | Percent of inhibition of ear edema (Table 5) | Percent of inhibition of ear edema (Table 6)
1 | C[C@@H]1C[C@H]2[C@@H]3CCC4=CC(=O)C=C[C@]4(C)[C@@]3(F)[C@@H](O)C[C@]2(C)[C@@]1(O)C(=O)CO[C@@H]1O[C@H](CO)[C@H](O)[C@H](O)[C@H]1O [Compound 15β, galactosyldexamethasone] | 34.0 ± 4.1% | –
2 | C[C@@H]1C[C@H]2[C@@H]3CCC4=CC(=O)C=C[C@]4(C)[C@@]3(F)[C@@H](O)C[C@]2(C)[C@@]1(O)C(=O)CO[C@H]1O[C@H](CO)[C@H](O)[C@H](O)[C@H]1O [Compound 15α, galactosyldexamethasone] | 27.5 ± 3.6% | –
3 | C[C@@H]1C[C@H]2[C@@H]3CCC4=CC(=O)C=C[C@]4(C)[C@@]3(F)[C@@H](O)C[C@]2(C)[C@@]1(O)C(=O)CO [Dexamethasone, reference compound] | 32.9 ± 3.5% | 32.9 ± 3.5%
4 | C[C@@H]1C[C@H]2[C@@H]3CCC4=CC(=O)C=C[C@]4(C)[C@@]3(F)[C@@H](O)C[C@]2(C)[C@@]1(O)C(=O)CO[C@@H]1O[C@H](CO)[C@@H](O)[C@H](O)[C@H]1O [Compound 5β, glucosyldexamethasone] | 19.6 ± 3.3% | –
5 | C[C@@H]1C[C@H]2[C@@H]3CCC4=CC(=O)C=C[C@]4(C)[C@@]3(F)[C@@H](O)C[C@]2(C)[C@@]1(O)C(=O)CO[C@H]1O[C@H](CO)[C@@H](O)[C@H](O)[C@@H]1O [Compound 25α, mannosyldexamethasone] | 24.9 ± 5.5% | –
